Measurements: paper PMC7854685, “Histone Parylation factor 1 contributes to the inhibition of PARP1 by cancer drugs” (Nature Communications, 2021)
A number of entries come with more than one value. The list is limited to them. The source may hold further records. Values given together differ, and nothing given here explains why; some may be repeats, others may stem from another dose, organism or construct than stated.

The chains behind the UniProt entries cited, without tags or fusion partners.
UniProt P09874, whole entry: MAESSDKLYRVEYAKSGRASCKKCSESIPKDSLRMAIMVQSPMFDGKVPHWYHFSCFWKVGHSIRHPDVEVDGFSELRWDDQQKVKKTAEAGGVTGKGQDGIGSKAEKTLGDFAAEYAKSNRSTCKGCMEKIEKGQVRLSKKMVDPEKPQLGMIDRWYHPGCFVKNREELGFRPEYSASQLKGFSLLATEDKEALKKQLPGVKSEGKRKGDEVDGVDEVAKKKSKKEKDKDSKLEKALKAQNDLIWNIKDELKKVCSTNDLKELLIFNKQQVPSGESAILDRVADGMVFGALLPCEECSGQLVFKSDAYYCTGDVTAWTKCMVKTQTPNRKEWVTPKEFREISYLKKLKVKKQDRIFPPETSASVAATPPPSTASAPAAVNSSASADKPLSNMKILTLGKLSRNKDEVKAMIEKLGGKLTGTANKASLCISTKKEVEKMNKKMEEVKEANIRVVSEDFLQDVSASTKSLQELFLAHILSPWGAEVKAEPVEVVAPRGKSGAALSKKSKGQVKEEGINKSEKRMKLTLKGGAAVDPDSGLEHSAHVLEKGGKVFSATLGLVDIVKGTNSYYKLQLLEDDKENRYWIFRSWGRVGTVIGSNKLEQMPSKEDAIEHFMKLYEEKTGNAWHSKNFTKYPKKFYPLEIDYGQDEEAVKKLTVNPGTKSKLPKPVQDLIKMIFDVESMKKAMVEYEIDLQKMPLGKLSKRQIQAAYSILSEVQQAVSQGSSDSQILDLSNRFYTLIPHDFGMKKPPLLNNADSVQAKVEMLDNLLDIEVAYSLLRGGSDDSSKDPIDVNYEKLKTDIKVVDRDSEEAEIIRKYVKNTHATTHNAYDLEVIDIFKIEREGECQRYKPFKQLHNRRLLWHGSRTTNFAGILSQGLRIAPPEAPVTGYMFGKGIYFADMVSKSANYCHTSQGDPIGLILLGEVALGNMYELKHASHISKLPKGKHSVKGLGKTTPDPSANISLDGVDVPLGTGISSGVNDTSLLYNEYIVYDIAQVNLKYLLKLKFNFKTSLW

Target: PARP1 (Homo sapiens, UniProt P09874)
Assay: Release of fluorescently labeled p18mer DNA (fluorescence polarization) upon NAD+ addition, KI determination for PARPi, with or without HPF1;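 also: PARP1 bound to fluorescein-tagged DNA and preincubated with inhibitor, then high NAD+ added, drop in fluorescence polarization tracked as the DNA dissociates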
Assay type: biochemical
Details: PARP1, +HPF1, single experiment

COC1CCN(C(=O)c2cc(Cc3n[nH]c(=O)c4ccccc34)ccc2F)CC1
koff (est): ≥ 0.00068 s-1, ≥ 0.00058 s-1, ≥ 0.0004 s-1
